# Some of the results follow. These are further read-outs of the screen, such as a control signal, another cell line or another target. No call is given for them. Compounds called inactive in the main read-out are mostly missing here. Potencies come from curve fits of mixed quality, noted in brackets.
# Experiment: qHTS Assay for Lipid Storage Modulators in Drosophila S3 Cells;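 as to cell number change: cells counted by Cell Tracker Red CMTPX staining in the red channel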
# Settings: BODIPY lipid droplet fluorescence, 18-24 h; for cell number change: measured here: cell count max response, cells fed with added oleic acid
# Summary of the method: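 Drosophila S3 cells got compounds at several concentrations plus oleic acid (400 uM solution). Laser-scanning cytometry with 488 nm excitation read lipid droplets at 500-530 nm and cells at 575-640 nm. Percent activity was relative to 20 uM Triacsin C.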
# [1] = measured here: cell number channel AC50, cells fed with added oleic acid
# [2] = measured here: lipid fluorescence (Fed channel) AC50, cells fed with added oleic acid
SMILES,cell number change [%],AC50 [1],AC50 [2]
O=C(COC(=O)/C=C/c1ccc(F)cc1)NCc1cccs1,1.41,–,–
CCN1CCN(c2ccc(NC(=O)c3cccc(OCc4ccccc4)c3)cc2)CC1,53.8,"7310 nM [rising, partial curve, poor fit]",–
CCc1cc(CNC(=O)c2ccc(OC3CCN(CCc4ccccc4)CC3)cc2)on1,11,–,–
CCOC(=O)c1c(C)nc2c(c1C)/C(=N/O)CC(C)(C)C2,37.9,–,"7310 nM [rising, partial curve, poor fit]"
CCOC(=O)c1cc(C#N)c(N2CCN(C)CC2)nc1-c1ccccc1,2.63,"130 nM [falling, single point]","103 nM [falling, single point]"
CCN1CCN(CC(=O)Nc2cc(F)ccc2C)CC1,-40.4,"1300 nM [falling, full curve]","4110 nM [falling, full curve]"
COc1ccccc1C(=O)Nc1ncc2c(n1)CC(c1ccco1)CC2=O (centres undefined),0.388,–,"2310 nM [rising, partial curve]"
COCCN(CCOC)C(=S)Nc1ccccc1,-13.6,"5170 nM [falling, single point]","2060 nM [falling, partial curve, poor fit]"
COC(=O)N1CCc2c(sc(NC(=O)C3COc4ccccc4O3)c2C(N)=O)C1 (centres undefined),-78.5,"20600 nM [falling, partial curve]",–
NC1=NC(=O)/C(=C/c2ccccc2OS(=O)(=O)c2ccccc2)S1,2.89,–,"18400 nM [rising, single point]"
CCOc1ccc(S(=O)(=O)N2CCCC(C(=O)NCc3cccnc3)C2)cc1Cl (centres undefined),-1.32,–,"398 nM [falling, single point]"
CC1CCN(CC(=O)NNC(=O)c2cccc(Br)c2)CC1,35.9,"9200 nM [rising, partial curve, poor fit]",–
CC(C)(C)c1ccc(O)c(N)c1,4.38,–,"184 nM [falling, full curve, poor fit]"
O=c1[nH]c(CN2CCCCC2)nc2c1C1(CCCCC1)Cc1ccccc1-2,-34,"18400 nM [falling, single point]","651 nM [falling, single point]"
C/C(CC1CC(C)(C)OC1=O)=N\NC(N)=S (centres undefined),-18.5,"461 nM [falling, partial curve, poor fit]","32.6 nM [falling, full curve, poor fit]"
COc1ccccc1NS(=O)(=O)c1cc(NC(=O)CNC(=O)c2ccc(C)s2)ccc1Cl,-50,"5.8 nM [falling, full curve, poor fit]","16400 nM [rising, single point]"
Cc1nc(Nc2ccc3c(c2)OCCO3)c2c(C)c(C)sc2n1,-4.64,–,–
O=C(c1cccc(-c2ccc(O)cc2)c1)N1CCN(c2ccc(F)cc2)CC1,12.8,–,"116 nM [rising, single point]"
CCn1c(CN2CCN(Cc3ccc(C)cc3)C(CCO)C2)nc2ccccc21 (centres undefined),19.1,–,–
CN1CCN(C(=O)c2cnn(-c3ccccc3)c2NC(=O)c2ccccc2Cl)CC1,0.867,–,–
COc1cccc(CNC(=O)CCNC(=O)c2ccco2)c1,-16.5,–,–
O=C(OCC(=O)N1CCN(C(=O)c2ccco2)CC1)c1cn(-c2ccccc2)nc1-c1ccccc1,6.65,"920 nM [rising, full curve, poor fit]",–
Cc1c(C(=O)Nc2ccc3c(c2)OCCO3)cnn1C,3.04,–,–
FC(F)(F)c1cc(C(F)(F)F)c2ccc(N/N=C/c3ccccc3)nc2n1,-15.3,–,"20600 nM [falling, partial curve, poor fit]"
Cc1ccc(C(=O)NNC(=O)COC(=O)COc2ccccc2C#N)cc1,-40.2,"4110 nM [falling, partial curve, poor fit]","4610 nM [falling, partial curve, poor fit]"
Cc1ccc(C(=O)CNc2ccccc2C)cc1,67.2,"23100 nM [rising, single point]","116 nM [falling, full curve, poor fit]"
O=C(OCCc1cc2ccccc2c(=O)o1)c1ccc(C(F)(F)F)cc1,-47,"92 nM [falling, full curve, poor fit]","92 nM [falling, full curve, poor fit]"
Cc1ccccc1OC(C)C(=O)Nc1ccc2c(c1)OCCO2 (centres undefined),34,"6510 nM [rising, partial curve, poor fit]","29100 nM [rising, single point]"

# 3 entries from above, sorted by heavy-atom count, largest number first.
SMILES,cell number change [%],AC50 [1],AC50 [2]
CCc1cc(CNC(=O)c2ccc(OC3CCN(CCc4ccccc4)CC3)cc2)on1,11,–,–
COc1cccc(CNC(=O)CCNC(=O)c2ccco2)c1,-16.5,–,–
COCCN(CCOC)C(=S)Nc1ccccc1,-13.6,"5170 nM [falling, single point]","2060 nM [falling, partial curve, poor fit]"

# — PubChem BioAssay AID2685 (National Center for Advancing Translational Sciences (NCATS), 2010)
